Data as given in PMC10351173.

System: PnWRKY15 (Panax notoginseng)
Test: EMSA
Details: LightShift Chemiluminescent EMSA kit (Pierce), pH and temperature not stated, recombinant protein, protein details: His (pET32a fusion)

Sequence: TACCGTGAAGAAATATATTTTTCTTTTGACCGACTATGGTGAGGGATGAA (double strand) [PPnOLP1 W-box probe]
- binding result (label: biotin (unlabeled as competitor)): binds

Sequence: TACCGTGAAGAAATATATTTTTCTTTTACCCGACTATGGTGAGGGATGAA (double strand) [PPnOLP1 mutant W-box probe]
- binding result (label: biotin): no binding

Construct, isoform or probe ends are uncertain for at least one entry. A negative result means that nothing was seen under these conditions.
